From patent US20250206839A1, “METHODS, COMPOSITIONS AND USES FOR SEMA7A MONOCLONAL ANTIBODIES” (THE REGENTS OF THE UNIVERSITY OF COLORADO, A BODY CORPORATE, priority 2022, published 2025)
Substitutions are numbered along the chain they refer to. These are yes or no findings as the source states them, for the method shown. Some entries that bind do so weakly or less than the wild type. For part of these data: Where a sequence is shown, tags or fusion partners need not be part of it. One block for each binder: values may come before it.

Key:
[1] = biological target: recombinant anti-SEMA7A monoclonal antibody; assay: ELISA, peptide competition: antibody pre-incubated 1:10 with the SEMA7A peptide
[2] = biological target: T1, SEMA7A on human breast cancer MCF7 SEMA7A overexpressing cells treated with TAPI-1 (human) (UniProt O75326); assay: immunofluorescence on fixed MCF7 SEMA7A overexpressing cells
T1 sequence: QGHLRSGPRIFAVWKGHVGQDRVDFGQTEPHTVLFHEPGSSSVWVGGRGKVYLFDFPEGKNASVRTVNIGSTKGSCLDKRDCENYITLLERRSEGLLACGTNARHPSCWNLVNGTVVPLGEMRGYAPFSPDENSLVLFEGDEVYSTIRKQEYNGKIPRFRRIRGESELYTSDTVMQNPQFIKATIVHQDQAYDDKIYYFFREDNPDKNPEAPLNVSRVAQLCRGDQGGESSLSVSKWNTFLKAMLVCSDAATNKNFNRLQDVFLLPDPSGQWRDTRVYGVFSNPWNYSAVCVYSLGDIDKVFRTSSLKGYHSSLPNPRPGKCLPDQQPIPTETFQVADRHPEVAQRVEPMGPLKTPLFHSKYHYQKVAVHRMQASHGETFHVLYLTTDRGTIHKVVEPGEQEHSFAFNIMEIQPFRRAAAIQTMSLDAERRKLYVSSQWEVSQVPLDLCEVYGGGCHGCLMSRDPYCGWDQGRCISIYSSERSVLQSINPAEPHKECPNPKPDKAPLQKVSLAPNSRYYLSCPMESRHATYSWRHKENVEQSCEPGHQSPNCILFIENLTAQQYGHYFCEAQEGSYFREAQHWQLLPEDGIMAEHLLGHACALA

[3] = biological target: T2, purified SEMA7A protein (human) (UniProt O75326); assay: ELISA on plate-coated purified SEMA7A, goat anti-mouse IgG HRP, absorbance at 425 nm [panel B, upper graph]
T2 sequence: T1 sequence

[4] = biological target: T3, V5 tagged SEMA7A (100 kDa) overexpressed in MCF7 cells (human) (UniProt O75326); assay: Western blot of cell lysates, 200 µg/mL antibody
T3 sequence: T1 sequence

[5] = biological target: T4, endogenous SEMA7A (75 kDa) of MCF7 cells (human) (UniProt O75326); assay: Western blot of cell lysates, 200 µg/mL antibody
T4 sequence: T1 sequence

[6] = biological target: T1, SEMA7A on human breast cancer MCF7 SEMA7A overexpressing cells treated with TAPI-1 (human); assay: immunofluorescence on MCF7 Sema7a OE cells, SmAb 250:1, FITC secondary 1000:1
[7] = biological target: T2, purified SEMA7A protein (human); assay: ELISA on plate-coated purified SEMA7A, goat anti-mouse IgG HRP, absorbance at 425 nm [panel B, lower graph]
[8] = biological target: T3, V5 tagged SEMA7A (100 kDa) overexpressed in MCF7 cells (human); assay: Western blot of MCF7 cell lysates probed with 200 ug/ml CUH1, goat anti-mouse IgG HRP [panel A]
[9] = biological target: T4, endogenous SEMA7A (75 kDa) of MCF7 cells (human); assay: as above
[10] = biological target: T3, V5 tagged SEMA7A (100 kDa) overexpressed in MCF7 cells (human); assay: Western blot of MCF7 cell lysates
[11] = biological target: T4, endogenous SEMA7A (75 kDa) of MCF7 cells (human); assay: Western blot of MCF7 cell lysates
[12] = biological target: T2, purified SEMA7A protein (human); assay: ELISA, dose-response curve
[13] = biological target: T2, purified SEMA7A protein (human); assay: ELISA, plate coated with purified SEMA7A
[14] = biological target: T2, purified SEMA7A protein (human); assay: ELISA on plate-coated purified SEMA7A, goat anti-mouse IgG HRP, absorbance at 425 nm

binding [1]: binds
Binder: ADRHPEVAQR [immunizing SEMA7A peptide (10 amino acid SEMA7A peptide)]

B1: SEMA7A monoclonal antibody SmAbH1 (antibody, V domains shown)
VH: QVKLQESGTVLARPGASVKMSCKASVYSFTSYWMHWVKQRPGQGLEWIGAIYPGNSDTSYNQKFKGKAKLTAVTSASTAYMELSSLTNEDSAVYYCTRGGAPTMITAYYAMDYWGQGTSVTVSS
VL: DIQMTQTTSSLSASLGDRVTISCRASQDISNYLNWYQQKPDGTVKLLIYYTSRLHSGVPSRFSGSGSGTDYSLTISNLEQEDIATYFCQQGNTLPWTFGGGTKLEIKR
binding [2]: binds
binding [3]: binds
binding [4]: binds
binding [5]: binds
binding [6]: binds
binding [7]: binds
binding [8]: binds
binding [9]: binds
binding [10]: binds
binding [11]: binds
binding [12]: binds
binding [13]: binds

binding [13]: binds
binding [14]: binds
B2: recombinant anti-SEMA7A monoclonal antibody (antibody, mouse IgG1, kappa, V domains shown)
VH: B1 VH with Q1E, K3Q, E6Q, V26G
VL: B1 VL
